Measurements reported in PubChem BioAssay AID652272 (Drosophila RNAi Screening Center, 2013)
In all, the deposit lists about 21,000 reagents; this is an unselected part of those that have a named target and a result. In the full data, 503 (2.4%) were called active. 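Raw plate light values, not normalised; calls rest on replicate z-scores that were not deposited; hits include reporter decreases as well as increases.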 Names joined by + are all predicted targets of the reagent. Not stated in the record: the amount of reagent, the time to read-out.

Purpose: 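Genome-wide knock-down search for components of Hedgehog signalling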 (primary screen)
System: Drosophila clone 8 (Cl8) cells
Knock-down reagent: long dsRNA against Drosophila genes
Read-out: 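Plate reader light from a firefly reporter under a ptc promoter fragment that responds to Hedgehog, with Renilla light as transfection reference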
Scale: firefly Hh reporter signal: higher = more ptc reporter light; Renilla reference signal: higher = more Renilla control light
Active means: 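Called a hit if the two-replicate mean z-score lies below -2 or above +3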
Calls: active = hit: reporter lowered or raised; inactive = not a hit

gene | DRSC id | firefly Hh reporter signal, replicate 1 | firefly Hh reporter signal, replicate 2 | firefly Hh reporter signal, replicate 3 | Renilla reference signal, replicate 1 | Renilla reference signal, replicate 2 | Call
CG6026 | DRSC15950 | 4.64e5 | 78915 | – | 31098 | 2600 | inactive
Dp1 | DRSC07403 | 1.38e5 | 1.07e5 | – | 4996 | 4304 | inactive
mIF3 | DRSC06290 | 97317 | 45526 | – | 2500 | 4296 | inactive
nonA-l | DRSC17017 | 78692 | 78921 | – | 1634 | 1993 | inactive
Cnot4 | DRSC02830 | 1.46e5 | 94091 | – | 3456 | 8498 | inactive
Cnot4 | DRSC02831 | 1.38e5 | 56992 | – | 3186 | 4681 | inactive
tant | DRSC11401 | 26738 | 35249 | – | 4131 | 3528 | inactive
pita | DRSC04006 | 1.53e5 | 1.92e5 | – | 2997 | 7011 | inactive
pita | DRSC04435 | 1.02e5 | 54387 | – | 3485 | 2045 | inactive
rdgBbeta | DRSC07672 | 1.37e5 | 73965 | – | 3876 | 5296 | inactive
SdhAL | DRSC10539 | 1.12e5 | 61216 | – | 4516 | 2419 | inactive
Vha36-1 | DRSC07098 | 1.05e5 | 1.16e5 | – | 4932 | 4213 | inactive
CG12279 | DRSC14495 | 1.48e5 | 1.59e5 | – | 4743 | 4570 | inactive
Taf10b | DRSC00792 | 1.17e5 | 99894 | – | 2881 | 2393 | inactive
Cyt-c1 | DRSC10447 | 1.65e5 | 67604 | – | 5641 | 2711 | inactive
ACXB | DRSC00845 | 95479 | 49962 | – | 2423 | 4352 | inactive
osi | DRSC02931 | 1.41e5 | 6.89e5 | 67255 | 3683 | 29382 | inactive
CG7848 | DRSC07050 | 73041 | 56112 | – | 1954 | 4336 | inactive
CG3942 | DRSC15525 | 65170 | 1.41e5 | – | 1404 | 3746 | inactive
SmydA-7 | DRSC07340 | 1.16e5 | 89733 | – | 5072 | 3325 | inactive
Doa | DRSC13892 | 43511 | 2.97e5 | – | 12325 | 6576 | inactive
Doa | DRSC13893 | 49216 | 2.08e5 | – | 13592 | 4692 | inactive
Doa | DRSC13895 | 47995 | 3.00e5 | – | 13060 | 6888 | inactive
Doa | DRSC13896 | 44535 | 2.84e5 | – | 11636 | 6022 | inactive
Doa | DRSC13897 | 37296 | 2.60e5 | – | 9793 | 6356 | inactive
Doa | DRSC16650 | 80518 | 1.53e5 | – | 2117 | 4456 | inactive
CG12992 | DRSC19512 | 67769 | 2.30e5 | – | 1901 | 7653 | inactive
asRNA:CR43469 + Balat | DRSC06852 | 97526 | 55435 | – | 3931 | 2422 | inactive
CG3330 | DRSC15477 | 1.17e5 | 67217 | – | 2624 | 2018 | inactive
CG13026 | DRSC09906 | 1.59e5 | – | – | 3285 | 6741 | inactive
CG34106 | DRSC01578 | 1.34e5 | 3.12e5 | – | 3522 | 12940 | inactive
dpr12 | DRSC04814 | 1.24e5 | 2.52e5 | – | 3548 | 10106 | inactive
dpr12 | DRSC04863 | 1.19e5 | 67350 | – | 2624 | 6611 | inactive
dpr12 | DRSC04892 | 79096 | 70472 | – | 1056 | 5906 | inactive
comm2 | DRSC09881 | 53297 | – | – | 2966 | 2061 | inactive
comm2 | DRSC10877 | 1.92e5 | – | – | 6950 | 5437 | inactive
MFS16 | DRSC04051 | 74922 | 45744 | – | 2112 | 4935 | inactive
CG43373 | DRSC09869 | 1.24e5 | – | – | 1552 | 4045 | inactive
CG43373 | DRSC09885 | 80182 | – | – | 1544 | 2512 | inactive
Nup62 | DRSC06970 | 90860 | 57136 | – | 4507 | 2472 | inactive
CG3397 | DRSC15487 | 1.26e5 | 1.13e5 | – | 4880 | 3974 | inactive
CG9747 | DRSC16554 | 77392 | 5.63e5 | 95366 | 1836 | 3591 | inactive
Ldsdh1 | DRSC18219 | 1.19e5 | 3.66e5 | – | 4717 | 13511 | inactive
CG5776 | DRSC02891 | 71019 | 73561 | – | 3344 | 2816 | inactive
gas | DRSC04521 | 66208 | 70550 | – | 1479 | 6224 | inactive
Muc96D | DRSC13709 | 48992 | 7.71e5 | 3.91e5 | 13590 | 6333 | inactive

The list goes on; the last 9 above are carried over.
gene | DRSC id | firefly Hh reporter signal, replicate 1 | firefly Hh reporter signal, replicate 2 | firefly Hh reporter signal, replicate 3 | Renilla reference signal, replicate 1 | Renilla reference signal, replicate 2 | Call
CG43373 | DRSC09869 | 1.24e5 | – | – | 1552 | 4045 | inactive
CG43373 | DRSC09885 | 80182 | – | – | 1544 | 2512 | inactive
Nup62 | DRSC06970 | 90860 | 57136 | – | 4507 | 2472 | inactive
CG3397 | DRSC15487 | 1.26e5 | 1.13e5 | – | 4880 | 3974 | inactive
CG9747 | DRSC16554 | 77392 | 5.63e5 | 95366 | 1836 | 3591 | inactive
Ldsdh1 | DRSC18219 | 1.19e5 | 3.66e5 | – | 4717 | 13511 | inactive
CG5776 | DRSC02891 | 71019 | 73561 | – | 3344 | 2816 | inactive
gas | DRSC04521 | 66208 | 70550 | – | 1479 | 6224 | inactive
Muc96D | DRSC13709 | 48992 | 7.71e5 | 3.91e5 | 13590 | 6333 | inactive
Cyp12a4 | DRSC16620 | 4.72e5 | 86716 | – | 24333 | 1989 | inactive
Cpr47Ee | DRSC06343 | 36016 | 19584 | – | 1456 | 1824 | active
CG5404 | DRSC15793 | 2.42e5 | 1.07e5 | – | 8951 | 1426 | inactive
Eig71Eb | DRSC11149 | 1.48e5 | – | – | 9111 | 4679 | inactive
CG33966 | DRSC08256 | 68848 | 44080 | – | 1965 | 3600 | inactive
Git | DRSC06620 | 69397 | 36644 | – | 2452 | 1488 | inactive
CG8671 | DRSC03102 | 68646 | 46256 | – | 1654 | 4121 | inactive
CG8671 | DRSC03103 | 76885 | 56048 | – | 1828 | 5104 | inactive
ATPsynB | DRSC09659 | 1.24e5 | 92544 | – | 4672 | 1635 | inactive
MAGE | DRSC12504 | 78711 | 1.17e5 | – | 2952 | 3223 | inactive
CG13337 | DRSC06371 | 1.02e5 | 61427 | – | 2645 | 4931 | inactive
CG30393 | DRSC04253 | 99698 | 82714 | – | 2377 | 6182 | inactive
EbpIII | DRSC04638 | 55632 | 43575 | – | 1193 | 3907 | inactive
PsGEF | DRSC18596 | 39178 | 2.00e5 | – | 871 | 7676 | inactive
PsGEF | DRSC18600 | 55561 | 2.09e5 | – | 1754 | 9434 | inactive
PsGEF | DRSC18601 | 43185 | 1.08e5 | – | 860 | 4827 | inactive
Nox | DRSC06596 | 1.00e5 | 59881 | – | 2676 | 3988 | inactive
Nox | DRSC06857 | 78656 | 59732 | – | 2033 | 3857 | inactive
CtsK1 | DRSC08742 | 1.04e5 | – | – | 3351 | 2657 | inactive
CG42755 (retired record) | DRSC09105 | 1.25e5 | 2.34e5 | – | 3734 | 10166 | inactive
CG42755 (retired record) | DRSC09106 | 1.44e5 | 2.17e5 | – | 4101 | 9300 | inactive
CG31516 | DRSC11994 | 2.13e5 | – | – | 4796 | – | inactive
Pcyt1 | DRSC08157 | 1.03e5 | 74704 | – | 4618 | 4012 | inactive
Sirt2 | DRSC15714 | 4.98e5 | 79461 | – | 25520 | 2032 | inactive
CG18586 | DRSC10325 | 36264 | 77158 | – | 691 | 5581 | inactive
CG14667 | DRSC12253 | 64125 | 1.01e5 | – | 2227 | 2900 | inactive
CG11241 | DRSC11641 | 1.52e5 | 6.22e5 | 1.14e5 | 5752 | 37351 | inactive
